Some entries share one result that the patent states for a list of compounds.
Test system: methicillin-resistant S. aureus (MRSA) ATCC 33592
Assay: MIC, antibiotic susceptibility testing, MRSA
Assay type: cell-based, Staphylococcus aureus
Conditions: against MRSA; 24 h at 37° C.
Method: Standard reference antibiotic susceptibility testing methods (NCCLS[CLS] (Clinical and Laboratory Standards Institute, 2006)) agar or dilutional methods was used to assess the activity of all prepared antimicrobials. Compounds were tested against Gram-positive strains including S. aureus, methicillin-resistant S. aureus (MRSA), S. epidermidis, methicillin-resistant S. epidermidis (MRSE) and S. pneumoniae as well as Gram-negative strains E. coli, gentamycin resistant E. coli and P. aeruginosa. Gentamycin and neomycin served as positive controls. MIC values defined as the lowest concentration of antimicrobial agent which inhibits the development of visible growth after 24 h at 37° C. was determined.
The minimum inhibitory concentrations (MIC) in μg/mL were determined using established methods (Clinical and Laboratory Standards Institute, 2006) and are shown in Table 3 (FIG. 17). Gentamicin, neomycin B and kanamycin A served as positive controls.

## 1,3,2′,6′,2′″,6″-Hexaammonium-5″-deoxy-5″-N-(hexadecanoyl)-neomycin hexakis(trifluoroacetate) [Compound 15]
  MIC: ≤ 8 µg/mL

## 1,3,2′,6′,2′″,6″-Hexaammonium-5″-deoxy-5″-N-(nonadecanoyl)-neomycin hexakis(trifluoroacetate) [Compound 16]
  MIC: ≤ 8 µg/mL

From patent US8865664B2, “Hydrophobically enhanced aminoglycosides” (University of Manitoba, priority 2008, dated 2014)
